29 targets from the supplement of paper PMC12819154, “High-throughput peptide-centric local stability assay extends protein–ligand identification to membrane proteins, tissues and bacteria” (Nature Structural & Molecular Biology, 2025) can be followed below.

Amino acid sequences for entries named in this document (tags omitted). A change or cut given only in a name is not applied to a line headed by its entry.
UniProt Q7L5D6: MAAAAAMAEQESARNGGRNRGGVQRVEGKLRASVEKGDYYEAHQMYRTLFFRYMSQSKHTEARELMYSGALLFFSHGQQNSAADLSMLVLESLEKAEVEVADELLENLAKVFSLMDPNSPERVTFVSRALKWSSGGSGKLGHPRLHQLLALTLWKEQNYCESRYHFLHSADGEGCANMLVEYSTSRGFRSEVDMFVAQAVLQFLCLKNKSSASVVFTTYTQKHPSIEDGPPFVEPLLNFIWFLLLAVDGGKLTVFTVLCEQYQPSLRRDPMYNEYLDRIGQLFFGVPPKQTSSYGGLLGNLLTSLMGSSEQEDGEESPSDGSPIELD
UniProt Q86UU1: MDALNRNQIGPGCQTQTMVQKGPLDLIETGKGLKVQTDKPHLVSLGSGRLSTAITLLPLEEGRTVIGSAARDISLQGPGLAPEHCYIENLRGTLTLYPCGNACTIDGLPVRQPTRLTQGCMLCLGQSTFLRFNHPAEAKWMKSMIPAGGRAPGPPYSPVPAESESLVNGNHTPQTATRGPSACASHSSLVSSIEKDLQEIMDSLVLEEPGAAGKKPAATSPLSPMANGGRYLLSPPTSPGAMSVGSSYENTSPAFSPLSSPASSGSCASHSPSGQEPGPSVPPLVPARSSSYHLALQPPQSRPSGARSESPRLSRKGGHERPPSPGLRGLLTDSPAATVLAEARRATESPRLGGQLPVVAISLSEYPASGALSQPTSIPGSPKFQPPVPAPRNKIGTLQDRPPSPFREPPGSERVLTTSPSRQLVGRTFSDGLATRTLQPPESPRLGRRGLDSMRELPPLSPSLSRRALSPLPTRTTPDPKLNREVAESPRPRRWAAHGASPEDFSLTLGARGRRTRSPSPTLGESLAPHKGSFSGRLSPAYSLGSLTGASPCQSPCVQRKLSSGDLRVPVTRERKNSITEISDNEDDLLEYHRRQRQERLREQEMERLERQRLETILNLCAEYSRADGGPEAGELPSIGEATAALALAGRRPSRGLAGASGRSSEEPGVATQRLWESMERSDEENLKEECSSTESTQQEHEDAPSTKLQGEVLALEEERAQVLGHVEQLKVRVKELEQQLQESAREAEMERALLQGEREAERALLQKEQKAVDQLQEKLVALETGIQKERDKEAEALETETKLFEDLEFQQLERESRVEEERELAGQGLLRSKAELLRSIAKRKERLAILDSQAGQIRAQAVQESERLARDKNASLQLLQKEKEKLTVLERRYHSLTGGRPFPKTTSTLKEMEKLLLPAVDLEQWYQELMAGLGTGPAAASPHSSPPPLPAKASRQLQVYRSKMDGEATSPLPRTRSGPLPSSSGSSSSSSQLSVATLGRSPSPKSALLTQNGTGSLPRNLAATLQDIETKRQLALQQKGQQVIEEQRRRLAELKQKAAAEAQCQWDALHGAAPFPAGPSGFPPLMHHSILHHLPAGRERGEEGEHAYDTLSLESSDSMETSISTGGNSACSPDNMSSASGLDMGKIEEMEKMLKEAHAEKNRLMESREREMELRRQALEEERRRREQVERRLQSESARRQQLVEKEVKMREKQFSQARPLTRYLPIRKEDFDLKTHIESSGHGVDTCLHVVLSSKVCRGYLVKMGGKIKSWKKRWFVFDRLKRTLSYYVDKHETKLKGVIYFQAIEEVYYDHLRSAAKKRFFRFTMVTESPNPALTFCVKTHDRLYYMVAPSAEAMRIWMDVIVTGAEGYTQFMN
UniProt Q6ZRI6: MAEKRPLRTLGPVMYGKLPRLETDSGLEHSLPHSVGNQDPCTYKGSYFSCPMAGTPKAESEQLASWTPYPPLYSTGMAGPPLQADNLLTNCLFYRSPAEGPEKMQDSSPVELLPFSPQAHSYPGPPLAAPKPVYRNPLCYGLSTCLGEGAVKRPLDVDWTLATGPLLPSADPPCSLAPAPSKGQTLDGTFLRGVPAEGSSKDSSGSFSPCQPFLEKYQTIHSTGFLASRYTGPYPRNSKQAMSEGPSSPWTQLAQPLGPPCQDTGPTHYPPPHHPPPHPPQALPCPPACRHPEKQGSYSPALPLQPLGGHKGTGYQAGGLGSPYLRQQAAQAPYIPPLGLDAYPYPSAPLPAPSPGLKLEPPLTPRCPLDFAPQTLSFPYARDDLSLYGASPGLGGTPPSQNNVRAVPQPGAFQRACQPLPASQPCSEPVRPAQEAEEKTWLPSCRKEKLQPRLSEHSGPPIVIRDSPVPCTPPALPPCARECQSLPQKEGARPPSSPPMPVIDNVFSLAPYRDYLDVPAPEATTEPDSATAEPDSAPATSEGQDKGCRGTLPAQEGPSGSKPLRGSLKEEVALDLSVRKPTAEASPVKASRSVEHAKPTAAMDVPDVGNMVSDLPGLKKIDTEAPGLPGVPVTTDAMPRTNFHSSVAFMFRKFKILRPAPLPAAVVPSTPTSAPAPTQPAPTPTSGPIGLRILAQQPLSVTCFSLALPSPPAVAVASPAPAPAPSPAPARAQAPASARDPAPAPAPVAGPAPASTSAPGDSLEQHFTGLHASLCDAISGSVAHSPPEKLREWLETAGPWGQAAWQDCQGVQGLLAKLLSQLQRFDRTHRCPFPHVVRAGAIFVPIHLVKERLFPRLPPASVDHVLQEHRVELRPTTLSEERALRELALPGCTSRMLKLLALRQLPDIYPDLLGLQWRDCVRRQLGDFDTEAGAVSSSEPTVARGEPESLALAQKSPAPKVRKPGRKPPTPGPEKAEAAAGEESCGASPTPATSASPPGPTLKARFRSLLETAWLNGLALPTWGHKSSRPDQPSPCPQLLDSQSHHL
UniProt Q7Z6E9: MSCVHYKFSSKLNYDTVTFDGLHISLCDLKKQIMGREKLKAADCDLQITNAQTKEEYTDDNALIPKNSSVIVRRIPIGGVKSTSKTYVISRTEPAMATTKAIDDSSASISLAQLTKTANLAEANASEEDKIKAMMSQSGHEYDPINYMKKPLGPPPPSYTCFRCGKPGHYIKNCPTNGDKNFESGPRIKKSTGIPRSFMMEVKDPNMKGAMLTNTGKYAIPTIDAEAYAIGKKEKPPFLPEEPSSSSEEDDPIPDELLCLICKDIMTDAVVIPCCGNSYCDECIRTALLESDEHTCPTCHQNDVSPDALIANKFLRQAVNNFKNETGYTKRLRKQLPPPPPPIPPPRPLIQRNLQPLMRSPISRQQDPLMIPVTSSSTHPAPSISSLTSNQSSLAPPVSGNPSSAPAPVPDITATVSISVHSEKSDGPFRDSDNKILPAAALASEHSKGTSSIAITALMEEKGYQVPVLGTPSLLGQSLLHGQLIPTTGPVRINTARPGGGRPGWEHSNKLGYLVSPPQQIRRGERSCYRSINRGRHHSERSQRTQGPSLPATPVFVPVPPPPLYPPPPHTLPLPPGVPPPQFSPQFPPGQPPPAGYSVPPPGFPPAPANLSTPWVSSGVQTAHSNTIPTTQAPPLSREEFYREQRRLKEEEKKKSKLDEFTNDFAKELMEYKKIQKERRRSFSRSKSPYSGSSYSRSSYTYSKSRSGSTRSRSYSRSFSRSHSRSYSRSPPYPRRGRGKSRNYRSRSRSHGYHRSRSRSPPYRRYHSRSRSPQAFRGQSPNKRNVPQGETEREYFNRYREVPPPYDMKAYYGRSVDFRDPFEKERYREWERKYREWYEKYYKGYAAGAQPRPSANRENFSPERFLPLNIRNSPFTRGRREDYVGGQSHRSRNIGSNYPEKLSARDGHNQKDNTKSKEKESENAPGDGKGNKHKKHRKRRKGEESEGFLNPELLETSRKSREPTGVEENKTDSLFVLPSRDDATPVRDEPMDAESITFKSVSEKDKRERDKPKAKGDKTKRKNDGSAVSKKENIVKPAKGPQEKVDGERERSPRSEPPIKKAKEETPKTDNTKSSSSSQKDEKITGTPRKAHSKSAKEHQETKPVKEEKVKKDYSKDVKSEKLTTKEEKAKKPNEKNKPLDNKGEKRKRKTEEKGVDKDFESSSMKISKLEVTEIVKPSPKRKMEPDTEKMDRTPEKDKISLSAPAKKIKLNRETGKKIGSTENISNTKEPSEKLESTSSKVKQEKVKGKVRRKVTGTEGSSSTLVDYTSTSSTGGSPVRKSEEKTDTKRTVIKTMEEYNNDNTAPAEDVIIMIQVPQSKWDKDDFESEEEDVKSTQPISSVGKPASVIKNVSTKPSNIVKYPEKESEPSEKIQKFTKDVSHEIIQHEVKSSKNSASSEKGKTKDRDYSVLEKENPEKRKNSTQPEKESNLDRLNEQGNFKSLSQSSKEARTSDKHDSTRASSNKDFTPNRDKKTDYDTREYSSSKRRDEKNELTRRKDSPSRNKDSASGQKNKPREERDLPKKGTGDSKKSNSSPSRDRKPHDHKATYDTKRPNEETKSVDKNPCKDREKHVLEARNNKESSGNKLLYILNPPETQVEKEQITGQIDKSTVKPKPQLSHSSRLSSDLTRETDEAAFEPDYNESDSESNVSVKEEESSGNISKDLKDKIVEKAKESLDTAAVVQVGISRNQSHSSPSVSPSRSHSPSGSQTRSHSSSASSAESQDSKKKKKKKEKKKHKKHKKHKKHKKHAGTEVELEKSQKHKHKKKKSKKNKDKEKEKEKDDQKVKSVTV
UniProt Q7L2J0: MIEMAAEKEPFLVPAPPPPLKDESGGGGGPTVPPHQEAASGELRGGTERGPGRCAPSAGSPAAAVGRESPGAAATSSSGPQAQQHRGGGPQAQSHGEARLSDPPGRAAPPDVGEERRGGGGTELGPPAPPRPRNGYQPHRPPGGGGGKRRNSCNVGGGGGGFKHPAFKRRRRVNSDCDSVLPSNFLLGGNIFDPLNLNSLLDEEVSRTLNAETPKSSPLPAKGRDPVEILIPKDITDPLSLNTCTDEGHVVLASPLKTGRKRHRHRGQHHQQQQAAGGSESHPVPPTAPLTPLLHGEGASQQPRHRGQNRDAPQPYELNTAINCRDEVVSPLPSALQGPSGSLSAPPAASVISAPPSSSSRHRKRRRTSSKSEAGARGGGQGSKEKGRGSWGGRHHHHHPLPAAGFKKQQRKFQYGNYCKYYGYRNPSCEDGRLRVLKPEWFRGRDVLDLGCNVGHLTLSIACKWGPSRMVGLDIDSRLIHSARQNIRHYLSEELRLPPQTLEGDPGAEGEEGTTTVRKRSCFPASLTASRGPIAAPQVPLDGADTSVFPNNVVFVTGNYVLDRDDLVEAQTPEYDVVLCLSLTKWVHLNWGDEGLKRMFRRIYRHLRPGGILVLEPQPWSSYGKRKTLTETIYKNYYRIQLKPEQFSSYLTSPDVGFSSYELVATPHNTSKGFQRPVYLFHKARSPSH
UniProt Q70UQ0: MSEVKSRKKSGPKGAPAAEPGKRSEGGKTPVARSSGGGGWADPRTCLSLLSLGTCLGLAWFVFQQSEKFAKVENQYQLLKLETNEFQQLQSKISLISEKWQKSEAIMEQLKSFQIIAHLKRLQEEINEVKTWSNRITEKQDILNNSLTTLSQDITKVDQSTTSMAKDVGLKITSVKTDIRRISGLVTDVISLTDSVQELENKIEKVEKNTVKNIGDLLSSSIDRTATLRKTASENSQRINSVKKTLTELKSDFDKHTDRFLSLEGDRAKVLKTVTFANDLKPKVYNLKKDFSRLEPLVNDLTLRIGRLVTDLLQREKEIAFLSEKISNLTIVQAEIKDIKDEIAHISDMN
UniProt Q7Z2K6: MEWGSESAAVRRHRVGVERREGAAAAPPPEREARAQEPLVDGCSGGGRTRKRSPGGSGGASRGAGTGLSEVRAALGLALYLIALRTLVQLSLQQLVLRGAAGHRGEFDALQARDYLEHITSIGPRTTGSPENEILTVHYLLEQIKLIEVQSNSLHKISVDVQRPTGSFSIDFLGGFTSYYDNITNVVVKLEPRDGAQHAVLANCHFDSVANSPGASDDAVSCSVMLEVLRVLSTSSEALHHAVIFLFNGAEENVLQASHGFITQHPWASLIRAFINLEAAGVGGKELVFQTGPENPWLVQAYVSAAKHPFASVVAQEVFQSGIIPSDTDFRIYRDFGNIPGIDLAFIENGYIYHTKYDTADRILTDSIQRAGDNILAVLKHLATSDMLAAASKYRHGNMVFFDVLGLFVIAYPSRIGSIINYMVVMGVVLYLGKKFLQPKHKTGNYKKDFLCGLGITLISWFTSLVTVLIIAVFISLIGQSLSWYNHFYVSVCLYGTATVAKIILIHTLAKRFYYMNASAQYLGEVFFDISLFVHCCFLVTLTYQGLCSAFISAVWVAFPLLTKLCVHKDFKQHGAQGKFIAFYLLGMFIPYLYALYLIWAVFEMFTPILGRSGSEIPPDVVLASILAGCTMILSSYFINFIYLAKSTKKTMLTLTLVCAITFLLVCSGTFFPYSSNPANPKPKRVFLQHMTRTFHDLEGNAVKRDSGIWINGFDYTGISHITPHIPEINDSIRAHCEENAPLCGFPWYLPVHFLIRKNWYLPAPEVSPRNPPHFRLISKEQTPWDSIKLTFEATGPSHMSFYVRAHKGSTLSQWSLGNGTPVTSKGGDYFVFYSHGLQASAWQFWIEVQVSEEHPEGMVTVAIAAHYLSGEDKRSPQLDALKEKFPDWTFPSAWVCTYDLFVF

Some of the results follow. Most entries show no effect beyond the scatter of the controls.

Compound in this assay: CN[C@@H]1C[C@H]2O[C@@](C)([C@@H]1OC)n1c3ccccc3c3c4c(c5c6ccccc6n2c5c31)C(=O)NC4 [staurosporine]
Briefly: log2 fold change of tryptic peptide abundance, ligand vs vehicle (limited proteolysis) (log2 ratio); higher = more trypsin-susceptible (destabilized). Particulars: ligand concentration: 20 uM; sample: K562 cleared lysate; digestion: 4 min, 22 C (HT-PELSA RT4min, Orbitrap Astral).
For the target “PAXIP1 (peptide sequence: LMAYLAGAK, peptide start residue: 726) (UniProt Q6ZW49)”, the log2 fold change amounted to 0.28.
Next, “FAM83H (peptide sequence: MPGGALEPHAGLRPLSR, peptide start residue: 362) (UniProt Q6ZRV2)”: 0.636; “UniProt Q6ZVD8 (peptide sequence: CSLHPTPTSGLFQR, peptide start residue: 1118)”: -0.0628; “COPS6 (peptide sequence: SQEGRPVQVIGALIGK, peptide start residue: 60) (UniProt Q7L5N1)”: -0.347.
Next, “SGMS1 (peptide sequence: IKPNGMPNGYRK, peptide start residue: 102) (UniProt Q86VZ5)”: 0.107.
In the case of “UniProt Q86V81 (peptide sequence: SLGTADVHFERK, peptide start residue: 145)” it was 0.298; in that of “N4BP2 (peptide sequence: TSSVQSDKK, peptide start residue: 810) (UniProt Q86UW6)”, 1.27.
As to “UniProt Q7L5D6 (peptide sequence: EQNYCESR, peptide start residue: 156)”, the log2 fold change is 0.612.
In the case of “PHLDB1 (peptide sequence: ELEQQLQESAR, peptide start residue: 736) (UniProt Q86UU1)” it was 0.426; in that of “C15orf39 (peptide sequence: TNFHSSVAFMFR, peptide start residue: 641) (UniProt Q6ZRI6)”, -0.536.
On to “APTX (peptide sequence: IRLPHLEAVVIGR, peptide start residue: 31) (UniProt Q7Z2E3)”, for which the log2 fold change was 0.31.
In the case of “UniProt Q7L1Q6 (peptide sequence: GFEDEVKK, peptide start residue: 127)” it was 0.344; in that of “RBBP6 (peptide sequence: KTDYDTR, peptide start residue: 1474) (UniProt Q7Z6E9)”, -0.849.
In the case of “SUPT6H (peptide sequence: DHYQDPVPGITPSSSSR, peptide start residue: 1513) (UniProt Q7KZ85)” it was 0.357; in that of “BRAP (peptide sequence: FVAPFNEVIEQMK, peptide start residue: 180) (UniProt Q7Z569)”, -0.768.
In the case of “UniProt Q6ZMW3 (peptide sequence: IWDLADK, peptide start residue: 1713)” it was 0.0344.
Regarding “CYB5R4 (peptide sequence: SQVTDTLAK, peptide start residue: 154) (UniProt Q7L1T6)”, the log2 fold change was -0.149.
Next, “TBC1D9 (peptide sequence: MTFLFANLKDRDFLVQR, peptide start residue: 373) (UniProt Q6ZT07)”: 0.196; “MRPL10 (peptide sequence: EIAAVFQDNR, peptide start residue: 85) (UniProt Q7Z7H8)”: 0.368; “MEPCE (peptide sequence: AAPPDVGEER, peptide start residue: 107) (UniProt Q7L2J0)”: -0.282.
Next, “UniProt Q7L592 (peptide sequence: GYSFYLAHEFFDVLPVHK, peptide start residue: 208)”: 0.455; “PATL1 (peptide sequence: LITPQVAK, peptide start residue: 461) (UniProt Q86TB9)”: 0.187.
In the case of “INTS8 (peptide sequence: LLVDQMR, peptide start residue: 476) (UniProt Q75QN2)” it was 0.0964; in that of “LCA5 (peptide sequence: NLELSTNSFQR, peptide start residue: 245) (UniProt Q86VQ0)”, 0.0617; in that of “UniProt Q70UQ0 (peptide sequence: EIAFLSEK, peptide start residue: 318)”, -0.119.
For the target “RPAIN (peptide sequence: LVGSPPWK, peptide start residue: 15) (UniProt Q86UA6)”, the log2 fold change is -0.0938.
Next, “KCTD9 (peptide sequence: ANLEGANLK, peptide start residue: 303) (UniProt Q7L273)”: -0.0842.
In the case of “ERMP1 (peptide sequence: EGAAAAPPPER, peptide start residue: 21) (UniProt Q7Z2K6)” it was -0.514; in that of “UniProt Q86VE0 (peptide sequence: RTGQEVQKR, peptide start residue: 71)”, 0.379.
